Measured values as given in PMC7819943, “Rice protein-binding microarrays: a tool to detect cis-acting elements near promoter regions in rice”.
Some of the results follow.

Sequences of proteins named here, by UniProt entry; tags and fusion partners are left off.
UniProt Q0JBA9, entry or part of it: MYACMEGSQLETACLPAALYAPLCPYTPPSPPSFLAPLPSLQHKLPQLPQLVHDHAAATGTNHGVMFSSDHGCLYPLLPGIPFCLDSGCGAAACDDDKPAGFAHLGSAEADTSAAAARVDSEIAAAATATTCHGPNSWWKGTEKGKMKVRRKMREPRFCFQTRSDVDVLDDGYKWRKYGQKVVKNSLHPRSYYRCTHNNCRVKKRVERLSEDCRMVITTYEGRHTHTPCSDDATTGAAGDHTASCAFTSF

Target: OsWRKY34 (Oryza sativa, UniProt Q0JBA9 1-250)
Assay: protein-binding microarray (RPBM); PBS, 2% BSA, 51.3 ng/ul salmon testes DNA, 50 uM zinc acetate, 200 nM TF, 25 C, 1 h; high values mean tight binding
Details: protein: recombinant; tags: N-terminal polyhistidine and DsRed monomer fusion (pET32a); label: CyDye5-dUTP incorporated in the synthesized complementary strand; 3' TTTTT single-stranded linker to array surface; dsDNA, one strand shown
Summary of the method: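 Binding signal is reported as fluorescence intensity per feature (arbitrary units) from an Axon 4000B scanner. Incubation used 200 nM of each Ni–NTA-purified, N-terminally polyhistidine- and DsRed-fused transcription factor from E. coli BL21-CodonPlus on a double-stranded custom Agilent array for 1 h at 25 °C, with 50 µM zinc acetate in the buffer, followed by washing.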

Sequence	binding signal
GTCGAGCCCAATCCTCCGCCTGTACTTCATCTCCTTCAGACGGAGTCACCTAGTGCAG	10100 fluorescence intensity (a.u.)
CCGTTCTCCAGATCCGCACCGCCACCGCCGCCGCCGCGCGCGGAGTCACCTAGTGCAG	9490 fluorescence intensity (a.u.)
GATTTGTTTCATTGTTCTGATTTGGTTTTGATTTTGATTTCGGAGTCACCTAGTGCAG	9520 fluorescence intensity (a.u.)
AGCCAATACTTTCTGGAGCTTTCGTACATTGTGCCTTGTGCGGAGTCACCTAGTGCAG	8440 fluorescence intensity (a.u.)
GTCCGAGTCTCTTTTCATCATTTCGTCTGCCAACGCAAACCGGAGTCACCTAGTGCAG	9120 fluorescence intensity (a.u.)
TGGCCCACGCGCGCCTCATCGTCGCCAGCCACGGCAGCTTCGGAGTCACCTAGTGCAG	8770 fluorescence intensity (a.u.)
TCAAACCTTCCGGTAGAGCTGCACTTTCTCATGTTTTTTTCGGAGTCACCTAGTGCAG	11600 fluorescence intensity (a.u.)
AGAGAGATAGTGGTGGTGGTGGTGGGGCACTGAGAATCCACGGAGTCACCTAGTGCAG	8080 fluorescence intensity (a.u.)
TCCTCTTCAATCTTTCATTCGACCGTTGCATTGACATCCTCGGAGTCACCTAGTGCAG	9180 fluorescence intensity (a.u.)
GGGATTTCTCGCAAAACGACGCCCACTAATCCAGACCCCTCGGAGTCACCTAGTGCAG	8250 fluorescence intensity (a.u.)
GTGCTCCATGCTCCAAGCCGCATCCGCGTCTCTCGTCACGCGGAGTCACCTAGTGCAG	9070 fluorescence intensity (a.u.)
CAGACTGAAATGTATTTGCTGTACCCGTCCTTGGTTACTTCGGAGTCACCTAGTGCAG	8660 fluorescence intensity (a.u.)
TACTTATTTCGTTATATTGAGGCCACATCCAAATCCAGTTCGGAGTCACCTAGTGCAG	8670 fluorescence intensity (a.u.)
CTCGTTTCTTTCGCGTGAACGCCGAGTCTTCTCTGAATTCCGGAGTCACCTAGTGCAG	13000 fluorescence intensity (a.u.)
AGGAGAGATGGCCACCACTACACTCTCCATTGTCCCACTCCGGAGTCACCTAGTGCAG	8390 fluorescence intensity (a.u.)
TGGTTTGCGGTGGTGCGCGCGCGGCTTCTTCTCGGGGTGGCGGAGTCACCTAGTGCAG	9070 fluorescence intensity (a.u.)
TGTCACATCACATCGATCATTGATTTCACTTTGATTCCTCCGGAGTCACCTAGTGCAG	9370 fluorescence intensity (a.u.)
GGTCCGCGCGCTCGTGTATAAATAGGCCCGGCCGGTCGCGCGGAGTCACCTAGTGCAG	8840 fluorescence intensity (a.u.)
CACTTTTTTGTTTGCCGCTCGTTGATTTCATTAGCGAGTTCGGAGTCACCTAGTGCAG	9190 fluorescence intensity (a.u.)
CCAACCCCACCACCACACACATCCATCCTCACGACGCCCTCGGAGTCACCTAGTGCAG	8500 fluorescence intensity (a.u.)
CGTCAATCCGCCTTGCATTTCGCCACCCTCTATCTCGCCGCGGAGTCACCTAGTGCAG	9120 fluorescence intensity (a.u.)

For convenience, some entries already given.
Sequence	binding signal
GTGCTCCATGCTCCAAGCCGCATCCGCGTCTCTCGTCACGCGGAGTCACCTAGTGCAG	9070 fluorescence intensity (a.u.)
CAGACTGAAATGTATTTGCTGTACCCGTCCTTGGTTACTTCGGAGTCACCTAGTGCAG	8660 fluorescence intensity (a.u.)

2 records drawn at random from the list so far, as already listed:
Sequence	binding signal
CACTTTTTTGTTTGCCGCTCGTTGATTTCATTAGCGAGTTCGGAGTCACCTAGTGCAG	9190 fluorescence intensity (a.u.)
GGTCCGCGCGCTCGTGTATAAATAGGCCCGGCCGGTCGCGCGGAGTCACCTAGTGCAG	8840 fluorescence intensity (a.u.)

The list continues.

Sequence	binding signal
TCTTTAATATCACGTTTGACCATTTGTTCTATTCAAAAATCGGAGTCACCTAGTGCAG	11200 fluorescence intensity (a.u.)
GGAAGGAGTGTGTTTCGTGTGCTGTGCTGGGCTCGCGCGGCGGAGTCACCTAGTGCAG	8990 fluorescence intensity (a.u.)
TTCTCCTGTGCTTTGACCACGACCTCTCATTTGGCCACTTCGGAGTCACCTAGTGCAG	11200 fluorescence intensity (a.u.)
TCATGGATTATCTCTTTAATGTATAACGCCGTTGACTTTTCGGAGTCACCTAGTGCAG	14300 fluorescence intensity (a.u.)
TCACTTGGGGTGGGTGATAAGATACAATCTGTTAGACGTGCGGAGTCACCTAGTGCAG	9190 fluorescence intensity (a.u.)
CCATCACTCCGTTCATTAGACCTGTCCCATTGTCCAAGCTCGGAGTCACCTAGTGCAG	8770 fluorescence intensity (a.u.)
CTCTTTTTTGGATCAGCGCCATGTTCTCTCCTCTCTCTCTCGGAGTCACCTAGTGCAG	8960 fluorescence intensity (a.u.)
TCCGCCTATAAATTCTTGCCACTTCTGTCGATCGCCGCGGCGGAGTCACCTAGTGCAG	10200 fluorescence intensity (a.u.)
TCTTAGGTGGTCAATGCGTATGTTTCGGTGGTGTTTGGATCGGAGTCACCTAGTGCAG	8370 fluorescence intensity (a.u.)
GTGTGGGCGTGCATGAGATCGCTCCATGTGTTGAACTGTTCGGAGTCACCTAGTGCAG	8370 fluorescence intensity (a.u.)
GCAAACCCTAGCGCGTGCTTTTTCCCCTGATTCACCGATTCGGAGTCACCTAGTGCAG	8110 fluorescence intensity (a.u.)
AGCCGAGCGTTGACTCACATAAAGGAGAACCACAAATTTCCGGAGTCACCTAGTGCAG	8570 fluorescence intensity (a.u.)
TTTCTACTTCTTACCGATTTGTACTCTCTGTGTAAATTTACGGAGTCACCTAGTGCAG	10400 fluorescence intensity (a.u.)
TGCCCTGCCCTGCCCTAGCGCCGCCGCCGCTTTTCCTTCCCGGAGTCACCTAGTGCAG	9250 fluorescence intensity (a.u.)
ACTCCATTTTTTTTCCTCGTTCGGTCTCTTCTAAAATAAACGGAGTCACCTAGTGCAG	9870 fluorescence intensity (a.u.)
ATGGTTCCTTTCATTCCTTTGTTTGGTCTTACGCTCGGTGCGGAGTCACCTAGTGCAG	9210 fluorescence intensity (a.u.)
TAGTGTGACCACCTTGACTAACCTGAACCTCTTAATTACTCGGAGTCACCTAGTGCAG	8750 fluorescence intensity (a.u.)
AAACATGTTTAAAAAAGTCAACGGCGTCAAACATTTAGGGCGGAGTCACCTAGTGCAG	13800 fluorescence intensity (a.u.)
TCTGTGCCTGCTCTTCTGCCCAATTGGGATCGCGACTCACCGGAGTCACCTAGTGCAG	8470 fluorescence intensity (a.u.)
AATCCCGCCACACCTAATCCACTCTAGTAGCTCTCACATTCGGAGTCACCTAGTGCAG	9860 fluorescence intensity (a.u.)
TTGTTACTTTACATTCATTTCTCGCAGTTCCTCAGGATATCGGAGTCACCTAGTGCAG	10200 fluorescence intensity (a.u.)

Sequence	binding signal
GCGTTGAGGGCAGGCGGCGGCGCTTGGTGGCGGTGGGGCACGGAGTCACCTAGTGCAG	8370 fluorescence intensity (a.u.)
CCTCTCTTTCTCTCTCTCTCTCTCTCTCTTTCTGTCCATTCGGAGTCACCTAGTGCAG	8100 fluorescence intensity (a.u.)
ATTCAACCACTGTTTTCTCTGCATGAACCTCTGTCACCCTCGGAGTCACCTAGTGCAG	9160 fluorescence intensity (a.u.)
CCGCCGCTGCTCCTCCCCATCGCCGAATCCGCCACCGCAGCGGAGTCACCTAGTGCAG	8680 fluorescence intensity (a.u.)
TATGTACTATGTGTGTTTTAGAGCTTCACCTACACTGCCACGGAGTCACCTAGTGCAG	8530 fluorescence intensity (a.u.)
CCGGTGCTTGGCCATGGACCTCCTTTCACGTCTAGCTCTCCGGAGTCACCTAGTGCAG	8440 fluorescence intensity (a.u.)
CATTGTCATCATCGATATTTTTGGTTTTATTTTCACGGGTCGGAGTCACCTAGTGCAG	10100 fluorescence intensity (a.u.)
ACACCATGAACACGTAGGTACATTTGCGTTCTGTATATATCGGAGTCACCTAGTGCAG	8340 fluorescence intensity (a.u.)
ATACCAATCATCATGGTCCGGTTGCAAGTAAAATACTAGTCGGAGTCACCTAGTGCAG	8110 fluorescence intensity (a.u.)
GGCTTCAGTATGAATTCTTACACAACCGTTGGTGTGCTACCGGAGTCACCTAGTGCAG	9250 fluorescence intensity (a.u.)
ACTCACCCACGCACACATGCTGCGCCCTCACCGCCACGGCCGGAGTCACCTAGTGCAG	8580 fluorescence intensity (a.u.)
TGGCGCCAGCCCTTAAGATTTGGGGAGGAGGGGTGGAACGCGGAGTCACCTAGTGCAG	10400 fluorescence intensity (a.u.)
ATGTTTCGTATATTTTGATTATCGGGTTGGTCAGTTGTTTCGGAGTCACCTAGTGCAG	8900 fluorescence intensity (a.u.)
TTCTTCTTTTCTTTTTTTTTTGTTTTCTTCTCATTCTTCTCGGAGTCACCTAGTGCAG	10100 fluorescence intensity (a.u.)
ACACCGTCCCCGGTTGGCCGCCGCTGCTGTCGCCCGTCCGCGGAGTCACCTAGTGCAG	8130 fluorescence intensity (a.u.)
CGCGGATCGGCGCGCCACGTGTACGGCCATGATTCATCTCCGGAGTCACCTAGTGCAG	8530 fluorescence intensity (a.u.)
GCCGCCCGGCGACCACCACCACCACCATTAACGCTTAAACCGGAGTCACCTAGTGCAG	8550 fluorescence intensity (a.u.)
GAAAGTTGGGTTGAGAAAAAGGCATCGGGAATTTGGGATACGGAGTCACCTAGTGCAG	8500 fluorescence intensity (a.u.)
CCCCGCTCGCGGCCCGGTCGCGCCAAACATCGTCCGACTCCGGAGTCACCTAGTGCAG	9010 fluorescence intensity (a.u.)
GTTTCTTTCTCTCTCTCTCTCTCGTTCTCTCCGCTCTCTCCGGAGTCACCTAGTGCAG	8830 fluorescence intensity (a.u.)
ACTTTGTTTACGTATCTTCTCAATCTTGTCATTTTTTTCTCGGAGTCACCTAGTGCAG	9810 fluorescence intensity (a.u.)

Sequence	binding signal
CCAGCCCATCTGACTCATCGCGCCCGCCCCAGTCGATCTCCGGAGTCACCTAGTGCAG	8540 fluorescence intensity (a.u.)
ATATCTGTTTTTACGGTTCGAGGACGTTTTTATATCCGATCGGAGTCACCTAGTGCAG	8940 fluorescence intensity (a.u.)
CCAAAATACCACTACTACCCTTGCTTATTTGACCTCATTCCGGAGTCACCTAGTGCAG	10700 fluorescence intensity (a.u.)
ACAGCCCGCGCCGAACAGTTTCACCCTGTCCTCGTCACGTCGGAGTCACCTAGTGCAG	8460 fluorescence intensity (a.u.)
CGTCGCGCTGCCTTTGGTCTCGTACTCCCGTGGGGAACTACGGAGTCACCTAGTGCAG	8270 fluorescence intensity (a.u.)
TCCCCATCCGCAACCTCTTCATCCTCGAGTCATGGCCTTTCGGAGTCACCTAGTGCAG	9050 fluorescence intensity (a.u.)
CCAAAATTTTTCTATTCGCGAACTATATGAGGCCTTAGTACGGAGTCACCTAGTGCAG	9560 fluorescence intensity (a.u.)
GAGTAGGGGTAGTTCAATGGTATTTTTATGTAAATACACTCGGAGTCACCTAGTGCAG	8110 fluorescence intensity (a.u.)
ATAGATGTAGATATCTGACCCATTTTCACTCCCTACTCAACGGAGTCACCTAGTGCAG	8410 fluorescence intensity (a.u.)
AACATGTTTAAAAAAGTCAACGGCGTCGAACATTTAGAGACGGAGTCACCTAGTGCAG	14200 fluorescence intensity (a.u.)
TGCTTCCATCACCTCACTCTGTTGGGTAATGCTCATAAATCGGAGTCACCTAGTGCAG	8290 fluorescence intensity (a.u.)
TGCTCGCTCTGGACGCGTCGCCGCGCCCGCTCGGCTTCTTCGGAGTCACCTAGTGCAG	9130 fluorescence intensity (a.u.)
TTATCTATCCGTATTGGCTCCGTTTTCATCCCTAGTTTCGCGGAGTCACCTAGTGCAG	10000 fluorescence intensity (a.u.)
CCTGTGTATTTGTTGGTCTATTTGGTTTCCTTGGATGGGACGGAGTCACCTAGTGCAG	14500 fluorescence intensity (a.u.)
ACATATTTTTAATACTGGCTATATTCGGCTGTCATTATTTCGGAGTCACCTAGTGCAG	8930 fluorescence intensity (a.u.)
CCGTTTAAACTTTGACCACCAATTACTTTTTTAAATAGTTCGGAGTCACCTAGTGCAG	8350 fluorescence intensity (a.u.)
TCCCTCGATCCATAACCGACCGACCAATTACGCGCCGTACCGGAGTCACCTAGTGCAG	9630 fluorescence intensity (a.u.)
AACCCTAAAATCTCTCTCTCTCTCTCGATCCCCTAACGCGCGGAGTCACCTAGTGCAG	8640 fluorescence intensity (a.u.)
GGAAAAAGAACAATCTGCGACCAACCTCTTTTTTCTATCCCGGAGTCACCTAGTGCAG	8980 fluorescence intensity (a.u.)
AACAAACACTATTACCGTGTATCCCAAGTTGCCTTTTCATCGGAGTCACCTAGTGCAG	9310 fluorescence intensity (a.u.)
ATCGTGATCTCCGTACGTTAGGTTGGTTTCTTTGTTTTTCCGGAGTCACCTAGTGCAG	11400 fluorescence intensity (a.u.)

Some of the entries above, set out differently.

| Sequence | binding signal |
| --- | --- |
| TCTGTGCCTGCTCTTCTGCCCAATTGGGATCGCGACTCACCGGAGTCACCTAGTGCAG | 8470 fluorescence intensity (a.u.) |
| AATCCCGCCACACCTAATCCACTCTAGTAGCTCTCACATTCGGAGTCACCTAGTGCAG | 9860 fluorescence intensity (a.u.) |
